Assay results taken from paper PMC7819943, “Rice protein-binding microarrays: a tool to detect cis-acting elements near promoter regions in rice”.
This is one part of the list.

The chains behind the UniProt entries cited, without tags or fusion partners.
UniProt Q0JBA9, entry or part of it: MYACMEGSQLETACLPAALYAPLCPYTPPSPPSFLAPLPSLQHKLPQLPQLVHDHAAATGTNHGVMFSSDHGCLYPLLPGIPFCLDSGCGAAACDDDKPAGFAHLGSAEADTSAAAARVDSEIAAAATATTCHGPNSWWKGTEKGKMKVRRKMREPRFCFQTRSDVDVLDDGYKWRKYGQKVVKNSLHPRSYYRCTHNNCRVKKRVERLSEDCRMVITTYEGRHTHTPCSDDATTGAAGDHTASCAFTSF

target: OsWRKY34 (Oryza sativa, UniProt Q0JBA9 1-250); test: protein-binding microarray (RPBM); PBS, 2% BSA, 51.3 ng/ul salmon testes DNA, 50 uM zinc acetate, 200 nM TF, 25 C, 1 h; high values mean tight binding; conditions: protein: recombinant; tags: N-terminal polyhistidine and DsRed monomer fusion (pET32a); label: CyDye5-dUTP incorporated in the synthesized complementary strand; 3' TTTTT single-stranded linker to array surface; dsDNA, one strand shown
In short: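 Transcription factors were each fused at the N-terminus to a polyhistidine tag plus DsRed and expressed in E. coli BL21-CodonPlus before Ni–NTA purification. Binding to a double-stranded custom Agilent array was carried out with 200 nM protein at 25 °C for 1 h in PBS, 2% BSA, salmon testes DNA and 50 µM zinc acetate. The binding signal is per-feature fluorescence intensity, in arbitrary units, on an Axon 4000B scanner.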

Sequence	binding signal
AACTTTTTTTTTTCTCTACTGCTACTGACAAGTCAAAAACCGGAGTCACCTAGTGCAG	9220 fluorescence intensity (a.u.)
GACCCCATTTACACGCGCCGTCGACCGCATCTCATCTCATCGGAGTCACCTAGTGCAG	10800 fluorescence intensity (a.u.)
CCCGATCCATCCATCTCCTTCCTTGCATCTACTATTTTATCGGAGTCACCTAGTGCAG	14500 fluorescence intensity (a.u.)
ACCACCTAATCTAAATTATTATTTAGTCCCTCCTTCCCAACGGAGTCACCTAGTGCAG	8290 fluorescence intensity (a.u.)
TAATATTATGTTGCTTTTACTCTGCTAGTTATCTTCATGTCGGAGTCACCTAGTGCAG	9590 fluorescence intensity (a.u.)
CATGCTAGTTTCTTTATGTTGCACACAAGTGTTTCTTGATCGGAGTCACCTAGTGCAG	10400 fluorescence intensity (a.u.)
CAGAGCTTTGTTTGTCGTCCTAGATCACTAATTTTTCAGACGGAGTCACCTAGTGCAG	8120 fluorescence intensity (a.u.)
CAAGAAGGATCTTACATGTGGGTTGCACTTAACTATTTGCCGGAGTCACCTAGTGCAG	9540 fluorescence intensity (a.u.)
CCGCCGACCATCTCCCGCCGCCTCCCCACCCCACCCCACGCGGAGTCACCTAGTGCAG	8060 fluorescence intensity (a.u.)
TGTTTGACATCGTTGACTTTTTAACACATGTTTCACTGTTCGGAGTCACCTAGTGCAG	36000 fluorescence intensity (a.u.)
GTGATGCAGGCAAGAAACCCGGGCACACACATGGCTATTCCGGAGTCACCTAGTGCAG	8260 fluorescence intensity (a.u.)
TTCTTTCTCTTTTTTTTTTTACATCCTTCAAATTGTCATACGGAGTCACCTAGTGCAG	8360 fluorescence intensity (a.u.)
CTGGGGTTCTATCATAGCGGACTCAGATTAATATTTCACACGGAGTCACCTAGTGCAG	8850 fluorescence intensity (a.u.)
CATTGTTCCATGGCTACAACAAGCCAACAGCTATAATATTCGGAGTCACCTAGTGCAG	8170 fluorescence intensity (a.u.)
CGAACTCGCCGCGGATTCCTTGCCCTCCACGCCGCAAACCCGGAGTCACCTAGTGCAG	8820 fluorescence intensity (a.u.)
GGTTACACTGATATGTGGGATCCATCTGTTCTTTTTTAATCGGAGTCACCTAGTGCAG	9380 fluorescence intensity (a.u.)
TATATATACACGTCTATACCCACACGTTGATTAATGCGAGCGGAGTCACCTAGTGCAG	8770 fluorescence intensity (a.u.)
TTTCGATCCAATGGTAATTTTCAGGTTTCTATTTCCACCACGGAGTCACCTAGTGCAG	8660 fluorescence intensity (a.u.)
GATCTCTCATTTTCATTTTCCTTCTTTTCCCTAGAGAAAGCGGAGTCACCTAGTGCAG	8430 fluorescence intensity (a.u.)
TGCCGATGGTTTGGTTTCCTCTTCCTCACTTTTTCTTTCTCGGAGTCACCTAGTGCAG	8620 fluorescence intensity (a.u.)
CGCGTACACCACCACCGCCTCGCACTTTTCCGCCATTTGTCGGAGTCACCTAGTGCAG	10300 fluorescence intensity (a.u.)

Sequence	binding signal
GTTATGCCAGCCCAGTTTTCAGAGTCTGTATTATGTTTCCCGGAGTCACCTAGTGCAG	9420 fluorescence intensity (a.u.)
ACAACGACTTGGACGCCGCTGCCGCCGGGAACGATGACTCCGGAGTCACCTAGTGCAG	8460 fluorescence intensity (a.u.)
CATGTGAGAAAAAGTCAACGGCATCATCTATAAGCCAACTCGGAGTCACCTAGTGCAG	9380 fluorescence intensity (a.u.)
GAGAGAGCACCTCGCCGCGGCCTCCAATCTCGCTCCACGACGGAGTCACCTAGTGCAG	9710 fluorescence intensity (a.u.)
CGTCGTCCCCAGCTAGCTATATCCCCTGCAGCATCACATCCGGAGTCACCTAGTGCAG	9610 fluorescence intensity (a.u.)
TTCTCAAGTCGTTTTCTCTCTCAATGTTGCCTGCTCGTGTCGGAGTCACCTAGTGCAG	8660 fluorescence intensity (a.u.)
TCCGTTGGTTCCATTCCTACTCGTCAACAGCTTTAAGATGCGGAGTCACCTAGTGCAG	10400 fluorescence intensity (a.u.)
GCTGGCGGGTAGGGTAGGTCAGGTGTGGGCCATGGGTGTCCGGAGTCACCTAGTGCAG	8660 fluorescence intensity (a.u.)
TGTGTTGCGGCAATGACGGTATCATCAGATTCATCTCCATCGGAGTCACCTAGTGCAG	8570 fluorescence intensity (a.u.)
TTCACTAGATATGTATGCTATGTTTAACAACAAAAACACCCGGAGTCACCTAGTGCAG	8300 fluorescence intensity (a.u.)
CCGCCGGTTCCACGTATCAGCCTCCTCTCCTCTGTCACCTCGGAGTCACCTAGTGCAG	9070 fluorescence intensity (a.u.)
ATTTTGATCCCTCGAGGTGACATACCTTTGTTTCTTAGTACGGAGTCACCTAGTGCAG	8700 fluorescence intensity (a.u.)
ACAGCAAACACACCTTTCACTCGACCTTATTCGAGAACTACGGAGTCACCTAGTGCAG	8860 fluorescence intensity (a.u.)
GCTGATTAATTTCACTCCATGTACTACTGCCGATTTGTTCCGGAGTCACCTAGTGCAG	9700 fluorescence intensity (a.u.)
ACCAACACCGCGCCCTTCCACTGTACCACCCGTGCTCTCCCGGAGTCACCTAGTGCAG	10700 fluorescence intensity (a.u.)
TCGCCGCCGACACTCGCCAAGTTTGATCACTTCTAACCGCCGGAGTCACCTAGTGCAG	8120 fluorescence intensity (a.u.)
CGGCCCTTCTCGAGGCACTTCTGCGGGTTGGGGTCCTTCTCGGAGTCACCTAGTGCAG	15400 fluorescence intensity (a.u.)
TTTTGGTAATTCGCTTCGCAGTGCTCTCTTCTCCTAGAATCGGAGTCACCTAGTGCAG	8460 fluorescence intensity (a.u.)
ATTAACTTTGCTATGTCAGTGAAACTAATCACCTATACTACGGAGTCACCTAGTGCAG	8630 fluorescence intensity (a.u.)
TAACCACCTTGTGTTTGATGACTGCTTCTATCATCATTATCGGAGTCACCTAGTGCAG	8160 fluorescence intensity (a.u.)
TTTCTCGACGTCCTCTGCCTCGTTTTCTTTGCCGATGATGCGGAGTCACCTAGTGCAG	9210 fluorescence intensity (a.u.)

Sequence	binding signal
GGCCAGGGTTCTTCATCACCCATCCAACGGTGACAATCCCCGGAGTCACCTAGTGCAG	11800 fluorescence intensity (a.u.)
TGGACACGCGTCGGGCGCTCATTGGCTGGGGTGGGGCATTCGGAGTCACCTAGTGCAG	15600 fluorescence intensity (a.u.)
CCGTTTGGTGGTGGTGGTGGTCGTCGTCGCCTGATTCCGCCGGAGTCACCTAGTGCAG	8930 fluorescence intensity (a.u.)
CTGTTCTTACTTGATGCTTGTGTTTTCTTCATTTCTTGCACGGAGTCACCTAGTGCAG	13700 fluorescence intensity (a.u.)
TCTACTACTCCACTACACGCAAATTTTGGATTAACTGAGACGGAGTCACCTAGTGCAG	8160 fluorescence intensity (a.u.)
TACATACGTACACTGTACCGCATCGCTACGCACGGCATGCCGGAGTCACCTAGTGCAG	8340 fluorescence intensity (a.u.)
TGCTCAGTGGTTCCTGCAGTCATGTGCTGCTTCAGGCTTTCGGAGTCACCTAGTGCAG	9980 fluorescence intensity (a.u.)
ACTCACTCTCTCCTGATCTTACTCTGCTACCGCTATTCCCCGGAGTCACCTAGTGCAG	8960 fluorescence intensity (a.u.)
TCTATACACATTCTCCGTTTTCTAATGTGTGACGTTAATTCGGAGTCACCTAGTGCAG	9720 fluorescence intensity (a.u.)
GCCATCCAATCAGTACAGTTGCGTCAAGCATTCAACTTCTCGGAGTCACCTAGTGCAG	11900 fluorescence intensity (a.u.)
ATCTTTTATAGCATTCATGTCACTGCGTGTGGACCCATGACGGAGTCACCTAGTGCAG	8280 fluorescence intensity (a.u.)
TTTCTTAATCTACTCCATGCTGACTGGCTCCTAGGTTCAACGGAGTCACCTAGTGCAG	8620 fluorescence intensity (a.u.)
TATACCACGATTATACTGTATTTATATCTGAAAAATTTTTCGGAGTCACCTAGTGCAG	8690 fluorescence intensity (a.u.)
CCAGGAGGTTTTGACTTCAGTTATTCTTGTTAATTAGTTTCGGAGTCACCTAGTGCAG	8250 fluorescence intensity (a.u.)
ACGCTATCCTCCCGGGGCAATATTCGGCTTTCGCGTCGCTCGGAGTCACCTAGTGCAG	9680 fluorescence intensity (a.u.)
TGTCTCGGTCTCGCCGGCGTGCTGCGCGCATGATGTGCTCCGGAGTCACCTAGTGCAG	9790 fluorescence intensity (a.u.)
TAGCGGTGGAGTTGCTTGGGGAGGTGGGCTAGCGCGTGATCGGAGTCACCTAGTGCAG	10900 fluorescence intensity (a.u.)
GTCTTCTTGCAACTGGATAGTGTTCATCAGTTCATGAGTTCGGAGTCACCTAGTGCAG	9440 fluorescence intensity (a.u.)
GCGCGCCTCACCTTTGCCGACGATAGCAACCGGATCGACTCGGAGTCACCTAGTGCAG	8510 fluorescence intensity (a.u.)
CTTGCTTGCTTACGTCTCTCTCGCACACTCCCACTATTCTCGGAGTCACCTAGTGCAG	10900 fluorescence intensity (a.u.)
CCCCACTCGGCTCTTATTCTTCTTCCTCATCCCGTCGCGGCGGAGTCACCTAGTGCAG	8610 fluorescence intensity (a.u.)

Sequence	binding signal
AATCTAACATGGATTTGCGCACACACTTGTCGTAACGTACCGGAGTCACCTAGTGCAG	9480 fluorescence intensity (a.u.)
TCCCTCCTCATCTCATTCATTACTCACTCTTTTACTCTTCCGGAGTCACCTAGTGCAG	8920 fluorescence intensity (a.u.)
ATATTTTTTTTGTCATTTACATGTCACTTAAATAGCTATACGGAGTCACCTAGTGCAG	10200 fluorescence intensity (a.u.)
GACGCTTCCGCCTCTAGCTCTCGATCGATCGATCCCACCACGGAGTCACCTAGTGCAG	10300 fluorescence intensity (a.u.)
GCTTATCTTTGCTTGTGGGTCGTTGTCGCCGTCTTTGGTTCGGAGTCACCTAGTGCAG	8620 fluorescence intensity (a.u.)
CCCATCCACTCAGGAGCTTCTCTCATTCCTCATGGCCTCTCGGAGTCACCTAGTGCAG	8210 fluorescence intensity (a.u.)
TGCGTTTATTTATACCGTTGTCCTCGCGTACTGTTTTATTCGGAGTCACCTAGTGCAG	19400 fluorescence intensity (a.u.)
CTACTTGCCTCTGCTGCACAAGCTTTGTTGTTTCTTGCACCGGAGTCACCTAGTGCAG	10300 fluorescence intensity (a.u.)
CATAGCTTTTGGCCTTCTGTGCTTCATCCACCCATTCTGCCGGAGTCACCTAGTGCAG	10500 fluorescence intensity (a.u.)
CTCCTCACCTGCTCAACTTCTGCGCTTTCTGAGCGCGATCCGGAGTCACCTAGTGCAG	8920 fluorescence intensity (a.u.)
AAGTTGGGCGTTGTTCGTTATCCACAGTGGATTTTCTTTTCGGAGTCACCTAGTGCAG	12800 fluorescence intensity (a.u.)
CCTTCTTTCTTCTTCAGTCTCCCTACTCTTTATTTTCTCTCGGAGTCACCTAGTGCAG	9660 fluorescence intensity (a.u.)
ACCTCTGCTGATTCTTCTTGCTGTTTCTTTGTTGCGCATTCGGAGTCACCTAGTGCAG	11500 fluorescence intensity (a.u.)
ATCGACCATGGCTACTCTACGTACGATTACCTTGATCACCCGGAGTCACCTAGTGCAG	9670 fluorescence intensity (a.u.)
CGTTCTCTCTCTCCTAGAACCACAGTTCAACCACTGTTTCCGGAGTCACCTAGTGCAG	8580 fluorescence intensity (a.u.)
CTGTTCTGGTCATTCTGGGCATACATTTGGCTGTATATTACGGAGTCACCTAGTGCAG	8070 fluorescence intensity (a.u.)
ATCTTGATAATATTTTTGGGTGGCATTGTCTCGATTTCGACGGAGTCACCTAGTGCAG	9090 fluorescence intensity (a.u.)
CAAACCAACTGATGTAGCTGCTTGTGACCTCTCTCGCATCCGGAGTCACCTAGTGCAG	9290 fluorescence intensity (a.u.)
ACTCAATTTACAGACTTTGATTTGCTTGCTGAATTCCTCTCGGAGTCACCTAGTGCAG	8200 fluorescence intensity (a.u.)
TTCCTCCATCCAGAAGTACTGGTTCCTGCTGTATTTTTCTCGGAGTCACCTAGTGCAG	8140 fluorescence intensity (a.u.)
CATTGCAGGTTCGACTTATGCTTTCACCTTTACTTAATCTCGGAGTCACCTAGTGCAG	9640 fluorescence intensity (a.u.)

Four consecutive entries out of the list so far:
Sequence	binding signal
TTTCTTAATCTACTCCATGCTGACTGGCTCCTAGGTTCAACGGAGTCACCTAGTGCAG	8620 fluorescence intensity (a.u.)
TATACCACGATTATACTGTATTTATATCTGAAAAATTTTTCGGAGTCACCTAGTGCAG	8690 fluorescence intensity (a.u.)
CCAGGAGGTTTTGACTTCAGTTATTCTTGTTAATTAGTTTCGGAGTCACCTAGTGCAG	8250 fluorescence intensity (a.u.)
ACGCTATCCTCCCGGGGCAATATTCGGCTTTCGCGTCGCTCGGAGTCACCTAGTGCAG	9680 fluorescence intensity (a.u.)
